# Assay results published in PMC11145777.
# The chains behind the UniProt entries cited, without tags or fusion partners.
# UniProt P16401: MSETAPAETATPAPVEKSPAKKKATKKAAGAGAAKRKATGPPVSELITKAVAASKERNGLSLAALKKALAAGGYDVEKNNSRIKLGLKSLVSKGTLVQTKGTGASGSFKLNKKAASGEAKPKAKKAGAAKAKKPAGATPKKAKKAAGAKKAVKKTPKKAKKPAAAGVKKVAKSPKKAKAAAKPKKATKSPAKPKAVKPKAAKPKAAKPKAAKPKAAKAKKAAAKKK
# Results are given in words; binding and its absence hold for the method and conditions named. Binding seen in cells or lysates may run through a third protein. Some binding calls cover weakened binding; strength is not graded here.
# Experiments:
# [1] = molecular target: HA-CpA (UniProt P49450); test: co-IP; native (unfixed) ChIP on mono-nucleosomes: native CpA from untransfected HeLa, GFP-CpA and HA-CpA from transfected HeLa, Western for H1.5 (three antibodies) and H2A; H3 ChIP done sequentially after the native CpA ChIP
# [2] = molecular target: native CENP-A (human (endogenous in HeLa)) (UniProt P49450); test: as above
substance,measurement,setting,value
linker histone H1.5 (from UniProt P16401 1-226),binding,[1],binds
same,binding,[2],binds
